Here are results for one substance from publication PMC2637979.

By UniProt entry, the sequences of proteins in these tests, tags left out.
UniProt P19525: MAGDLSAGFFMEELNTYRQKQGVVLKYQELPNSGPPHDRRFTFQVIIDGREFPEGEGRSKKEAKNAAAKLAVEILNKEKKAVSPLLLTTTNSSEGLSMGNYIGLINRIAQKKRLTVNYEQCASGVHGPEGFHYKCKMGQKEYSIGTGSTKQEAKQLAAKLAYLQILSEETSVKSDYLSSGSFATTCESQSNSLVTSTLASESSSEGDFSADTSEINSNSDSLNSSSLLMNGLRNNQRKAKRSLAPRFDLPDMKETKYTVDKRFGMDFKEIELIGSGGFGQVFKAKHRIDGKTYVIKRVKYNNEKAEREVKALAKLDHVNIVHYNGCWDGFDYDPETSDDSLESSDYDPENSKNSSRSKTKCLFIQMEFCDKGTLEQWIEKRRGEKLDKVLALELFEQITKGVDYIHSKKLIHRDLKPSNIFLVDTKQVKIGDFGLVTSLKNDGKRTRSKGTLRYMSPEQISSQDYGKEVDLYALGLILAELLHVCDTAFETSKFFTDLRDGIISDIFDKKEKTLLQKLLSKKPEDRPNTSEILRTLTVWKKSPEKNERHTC
UniProt O70133: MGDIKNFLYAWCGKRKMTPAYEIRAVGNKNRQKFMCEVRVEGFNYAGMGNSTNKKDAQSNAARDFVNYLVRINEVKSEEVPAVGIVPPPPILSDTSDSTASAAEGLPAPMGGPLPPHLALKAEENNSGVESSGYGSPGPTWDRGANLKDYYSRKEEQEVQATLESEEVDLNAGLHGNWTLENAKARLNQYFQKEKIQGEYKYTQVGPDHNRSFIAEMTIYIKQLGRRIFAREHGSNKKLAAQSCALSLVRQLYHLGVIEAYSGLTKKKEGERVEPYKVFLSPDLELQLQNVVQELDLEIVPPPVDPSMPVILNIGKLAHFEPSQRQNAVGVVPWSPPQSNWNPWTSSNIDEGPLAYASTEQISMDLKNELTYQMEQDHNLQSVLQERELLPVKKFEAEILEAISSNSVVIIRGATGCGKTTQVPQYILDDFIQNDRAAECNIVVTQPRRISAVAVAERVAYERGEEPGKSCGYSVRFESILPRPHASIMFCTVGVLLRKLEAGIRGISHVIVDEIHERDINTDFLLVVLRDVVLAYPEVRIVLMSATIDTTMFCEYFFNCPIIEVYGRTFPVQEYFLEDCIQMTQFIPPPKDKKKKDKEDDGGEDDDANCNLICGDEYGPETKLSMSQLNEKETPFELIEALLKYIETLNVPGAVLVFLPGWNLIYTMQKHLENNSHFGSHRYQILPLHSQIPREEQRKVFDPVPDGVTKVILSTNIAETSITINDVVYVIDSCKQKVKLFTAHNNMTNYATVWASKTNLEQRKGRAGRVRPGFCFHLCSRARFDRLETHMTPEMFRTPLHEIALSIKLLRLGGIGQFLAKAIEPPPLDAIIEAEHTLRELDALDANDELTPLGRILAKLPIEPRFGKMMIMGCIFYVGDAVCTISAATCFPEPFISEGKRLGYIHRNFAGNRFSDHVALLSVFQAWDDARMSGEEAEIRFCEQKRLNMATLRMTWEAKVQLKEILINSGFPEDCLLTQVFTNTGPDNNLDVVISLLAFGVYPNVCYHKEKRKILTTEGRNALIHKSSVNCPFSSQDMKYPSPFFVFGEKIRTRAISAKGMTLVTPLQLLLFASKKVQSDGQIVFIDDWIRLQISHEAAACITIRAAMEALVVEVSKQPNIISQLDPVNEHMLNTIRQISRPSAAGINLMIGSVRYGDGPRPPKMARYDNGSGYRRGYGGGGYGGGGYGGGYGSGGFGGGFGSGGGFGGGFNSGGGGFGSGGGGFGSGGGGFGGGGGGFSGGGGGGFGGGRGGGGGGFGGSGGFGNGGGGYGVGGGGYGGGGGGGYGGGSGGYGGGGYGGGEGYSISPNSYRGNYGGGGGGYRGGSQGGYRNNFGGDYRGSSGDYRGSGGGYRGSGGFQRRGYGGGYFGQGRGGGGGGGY

No constants are given. Whether binding was seen depends on the method and setting. Binding seen in cells or lysates may run through a third protein. These calls come from enrichment with a bait or labelling near it, and not all partners need be listed.

In this test the target is human PKR (double-stranded RNA-activated protein kinase R) expressed in pkr-null MEFs (human) (UniProt P19525). Kind of test: affinity purification with mass spectrometry; immunoprecipitation with mouse monoclonal anti-PKR from pkr-null MEFs expressing human PKR, stimulated with pIC; silver-stained 140 kDa band analysed by mass spectrometry.

Regarding “murine RNA helicase A (RHA), endogenous in MEFs (from UniProt O70133 1-1380) (enzyme)”, the binding result is “binds”.
